Measured values taken from the supplement of paper PMC12823440, “Inhibitors supercharge kinase turnover through native proteolytic circuits” (Nature, 2025).
Where a name gives a salt, the structure may show the parent alone. The list shows a part of the results. Hit calls seldom repeat between salt and free forms of one compound.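 Kinases, fused to nanoluciferase, were expressed in K562 cells; luminescence was measured every 4 h from 2 to 18 h as percent of control (DMSO = 100%, positive control = 0%). A time point is decreased if signal falls significantly (2 sigma). Hits were called by the authors by a rule that is not shown; the count of time points alone does not decide it.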

Sequences of proteins named here, by UniProt entry; tags and fusion partners are left off. A change or cut given only in a name is not applied to a line headed by its entry.
UniProt P31749: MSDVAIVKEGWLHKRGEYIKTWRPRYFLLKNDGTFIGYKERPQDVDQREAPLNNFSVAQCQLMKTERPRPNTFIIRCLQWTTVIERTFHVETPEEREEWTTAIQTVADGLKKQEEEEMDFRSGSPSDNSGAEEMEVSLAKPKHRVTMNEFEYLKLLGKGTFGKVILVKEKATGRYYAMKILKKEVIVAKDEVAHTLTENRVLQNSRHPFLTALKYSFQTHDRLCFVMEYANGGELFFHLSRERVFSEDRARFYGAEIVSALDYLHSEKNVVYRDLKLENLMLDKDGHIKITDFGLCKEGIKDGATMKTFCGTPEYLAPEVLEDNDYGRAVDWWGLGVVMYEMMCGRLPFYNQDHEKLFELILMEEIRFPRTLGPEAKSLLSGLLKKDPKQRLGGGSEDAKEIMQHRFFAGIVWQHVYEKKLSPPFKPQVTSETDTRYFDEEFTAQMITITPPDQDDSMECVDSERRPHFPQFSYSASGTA
UniProt P10398: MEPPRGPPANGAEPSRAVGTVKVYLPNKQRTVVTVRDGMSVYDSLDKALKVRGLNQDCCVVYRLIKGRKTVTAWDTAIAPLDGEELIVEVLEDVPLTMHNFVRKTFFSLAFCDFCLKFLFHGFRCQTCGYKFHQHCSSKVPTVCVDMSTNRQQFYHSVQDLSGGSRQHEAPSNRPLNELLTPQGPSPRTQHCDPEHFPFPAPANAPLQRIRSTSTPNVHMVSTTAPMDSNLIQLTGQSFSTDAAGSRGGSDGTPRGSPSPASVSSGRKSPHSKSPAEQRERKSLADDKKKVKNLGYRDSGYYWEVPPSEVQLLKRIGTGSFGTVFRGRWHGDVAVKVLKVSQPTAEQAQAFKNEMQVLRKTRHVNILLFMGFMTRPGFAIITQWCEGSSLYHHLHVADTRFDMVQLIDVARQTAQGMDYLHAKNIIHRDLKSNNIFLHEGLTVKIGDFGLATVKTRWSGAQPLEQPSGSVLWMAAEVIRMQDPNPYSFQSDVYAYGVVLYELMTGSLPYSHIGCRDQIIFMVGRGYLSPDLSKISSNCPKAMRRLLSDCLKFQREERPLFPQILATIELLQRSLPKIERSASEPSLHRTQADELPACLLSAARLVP
UniProt Q96GD4, whole entry: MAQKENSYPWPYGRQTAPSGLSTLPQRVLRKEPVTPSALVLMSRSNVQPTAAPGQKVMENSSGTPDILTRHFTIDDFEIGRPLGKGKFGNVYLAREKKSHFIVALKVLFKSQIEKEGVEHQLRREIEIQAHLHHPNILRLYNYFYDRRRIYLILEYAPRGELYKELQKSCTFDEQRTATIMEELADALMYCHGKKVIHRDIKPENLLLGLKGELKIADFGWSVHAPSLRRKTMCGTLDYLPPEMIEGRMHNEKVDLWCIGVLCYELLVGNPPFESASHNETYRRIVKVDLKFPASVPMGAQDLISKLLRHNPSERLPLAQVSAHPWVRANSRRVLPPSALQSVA
UniProt Q9UQB9: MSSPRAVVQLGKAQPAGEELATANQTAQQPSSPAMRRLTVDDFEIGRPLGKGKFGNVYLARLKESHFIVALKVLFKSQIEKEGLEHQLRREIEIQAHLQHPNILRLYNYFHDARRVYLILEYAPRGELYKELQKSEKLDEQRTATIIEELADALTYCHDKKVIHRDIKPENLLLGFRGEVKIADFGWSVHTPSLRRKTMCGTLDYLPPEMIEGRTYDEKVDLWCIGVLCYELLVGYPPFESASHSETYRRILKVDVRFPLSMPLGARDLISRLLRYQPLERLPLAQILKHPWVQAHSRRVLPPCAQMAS
UniProt P51451: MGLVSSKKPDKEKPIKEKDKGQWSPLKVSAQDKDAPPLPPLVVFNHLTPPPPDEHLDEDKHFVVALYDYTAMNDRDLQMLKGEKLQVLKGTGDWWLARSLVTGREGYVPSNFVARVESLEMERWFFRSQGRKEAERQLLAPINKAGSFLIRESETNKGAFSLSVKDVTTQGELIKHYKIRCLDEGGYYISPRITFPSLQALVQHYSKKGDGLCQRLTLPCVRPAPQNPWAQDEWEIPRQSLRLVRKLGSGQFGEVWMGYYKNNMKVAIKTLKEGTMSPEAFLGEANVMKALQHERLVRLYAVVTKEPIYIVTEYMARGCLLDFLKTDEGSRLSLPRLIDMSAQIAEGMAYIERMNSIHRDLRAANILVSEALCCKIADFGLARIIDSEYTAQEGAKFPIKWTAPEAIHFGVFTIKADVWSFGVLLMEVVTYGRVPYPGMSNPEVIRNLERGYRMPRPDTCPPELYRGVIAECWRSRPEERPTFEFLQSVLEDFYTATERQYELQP
UniProt P51813: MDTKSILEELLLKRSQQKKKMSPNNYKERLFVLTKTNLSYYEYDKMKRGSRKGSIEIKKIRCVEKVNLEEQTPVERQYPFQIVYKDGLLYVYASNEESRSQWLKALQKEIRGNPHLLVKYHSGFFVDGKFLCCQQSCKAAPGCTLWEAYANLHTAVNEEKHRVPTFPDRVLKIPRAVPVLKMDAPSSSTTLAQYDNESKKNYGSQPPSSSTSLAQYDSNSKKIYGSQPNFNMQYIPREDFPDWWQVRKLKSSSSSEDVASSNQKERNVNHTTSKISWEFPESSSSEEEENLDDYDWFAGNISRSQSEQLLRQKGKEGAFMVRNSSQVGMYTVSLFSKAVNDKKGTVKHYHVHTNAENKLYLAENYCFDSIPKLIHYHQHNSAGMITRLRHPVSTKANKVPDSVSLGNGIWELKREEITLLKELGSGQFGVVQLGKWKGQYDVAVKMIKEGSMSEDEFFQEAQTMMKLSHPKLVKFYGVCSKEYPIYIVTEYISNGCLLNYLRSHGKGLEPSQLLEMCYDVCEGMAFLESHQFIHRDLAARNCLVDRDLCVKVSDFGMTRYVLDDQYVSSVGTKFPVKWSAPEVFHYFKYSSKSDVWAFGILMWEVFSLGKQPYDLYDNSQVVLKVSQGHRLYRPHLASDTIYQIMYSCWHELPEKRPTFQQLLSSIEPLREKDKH
UniProt P15056, whole entry, looked up: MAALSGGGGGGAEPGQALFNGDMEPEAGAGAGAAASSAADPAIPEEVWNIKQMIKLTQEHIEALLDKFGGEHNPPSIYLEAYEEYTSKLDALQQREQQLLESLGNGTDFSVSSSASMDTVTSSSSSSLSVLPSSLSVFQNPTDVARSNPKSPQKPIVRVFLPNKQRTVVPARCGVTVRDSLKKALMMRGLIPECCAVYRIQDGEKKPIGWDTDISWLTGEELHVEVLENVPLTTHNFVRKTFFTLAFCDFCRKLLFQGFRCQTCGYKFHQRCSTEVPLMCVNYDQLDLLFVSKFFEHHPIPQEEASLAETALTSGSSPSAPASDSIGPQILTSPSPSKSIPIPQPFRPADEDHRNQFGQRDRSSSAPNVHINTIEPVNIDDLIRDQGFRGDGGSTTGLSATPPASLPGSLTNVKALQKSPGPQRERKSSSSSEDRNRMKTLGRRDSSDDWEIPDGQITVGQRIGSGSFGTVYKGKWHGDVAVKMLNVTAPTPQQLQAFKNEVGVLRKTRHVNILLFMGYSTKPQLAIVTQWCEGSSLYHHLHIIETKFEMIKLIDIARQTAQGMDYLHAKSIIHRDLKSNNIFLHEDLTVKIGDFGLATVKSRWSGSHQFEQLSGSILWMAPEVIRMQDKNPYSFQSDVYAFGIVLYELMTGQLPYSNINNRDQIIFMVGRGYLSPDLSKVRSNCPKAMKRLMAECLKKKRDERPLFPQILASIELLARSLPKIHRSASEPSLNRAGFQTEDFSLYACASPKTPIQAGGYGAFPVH
UniProt Q06187: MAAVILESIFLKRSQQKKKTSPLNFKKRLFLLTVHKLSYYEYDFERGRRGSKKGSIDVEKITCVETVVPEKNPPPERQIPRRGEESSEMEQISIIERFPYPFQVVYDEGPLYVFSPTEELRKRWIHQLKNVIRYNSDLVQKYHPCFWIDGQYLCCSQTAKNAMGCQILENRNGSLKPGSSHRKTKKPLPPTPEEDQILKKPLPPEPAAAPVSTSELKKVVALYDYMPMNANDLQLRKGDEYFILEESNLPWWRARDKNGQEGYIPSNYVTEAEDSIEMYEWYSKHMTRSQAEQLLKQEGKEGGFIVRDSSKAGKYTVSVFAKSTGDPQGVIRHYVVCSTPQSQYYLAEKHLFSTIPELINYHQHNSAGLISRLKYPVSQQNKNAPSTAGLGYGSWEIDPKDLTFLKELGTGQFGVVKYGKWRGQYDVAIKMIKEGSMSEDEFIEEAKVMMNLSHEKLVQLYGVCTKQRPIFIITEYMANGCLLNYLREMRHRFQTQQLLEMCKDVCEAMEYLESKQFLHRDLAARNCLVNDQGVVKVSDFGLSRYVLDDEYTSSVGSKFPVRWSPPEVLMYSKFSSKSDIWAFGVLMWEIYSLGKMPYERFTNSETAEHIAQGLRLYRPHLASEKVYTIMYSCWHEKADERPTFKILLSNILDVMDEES
UniProt Q13555: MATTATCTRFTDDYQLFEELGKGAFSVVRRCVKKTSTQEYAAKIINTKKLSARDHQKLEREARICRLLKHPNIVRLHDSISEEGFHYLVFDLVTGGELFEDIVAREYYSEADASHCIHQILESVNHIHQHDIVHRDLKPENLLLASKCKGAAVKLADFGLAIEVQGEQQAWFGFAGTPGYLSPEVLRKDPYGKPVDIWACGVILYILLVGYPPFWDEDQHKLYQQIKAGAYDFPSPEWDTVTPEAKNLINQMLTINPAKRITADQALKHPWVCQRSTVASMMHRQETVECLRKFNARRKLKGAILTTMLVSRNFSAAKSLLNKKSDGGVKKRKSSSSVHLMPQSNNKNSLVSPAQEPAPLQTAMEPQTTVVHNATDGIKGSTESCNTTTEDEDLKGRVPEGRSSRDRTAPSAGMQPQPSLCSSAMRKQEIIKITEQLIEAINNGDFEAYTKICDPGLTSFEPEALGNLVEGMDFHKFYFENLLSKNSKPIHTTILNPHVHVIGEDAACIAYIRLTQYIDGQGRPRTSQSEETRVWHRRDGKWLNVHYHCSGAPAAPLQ
UniProt Q15131: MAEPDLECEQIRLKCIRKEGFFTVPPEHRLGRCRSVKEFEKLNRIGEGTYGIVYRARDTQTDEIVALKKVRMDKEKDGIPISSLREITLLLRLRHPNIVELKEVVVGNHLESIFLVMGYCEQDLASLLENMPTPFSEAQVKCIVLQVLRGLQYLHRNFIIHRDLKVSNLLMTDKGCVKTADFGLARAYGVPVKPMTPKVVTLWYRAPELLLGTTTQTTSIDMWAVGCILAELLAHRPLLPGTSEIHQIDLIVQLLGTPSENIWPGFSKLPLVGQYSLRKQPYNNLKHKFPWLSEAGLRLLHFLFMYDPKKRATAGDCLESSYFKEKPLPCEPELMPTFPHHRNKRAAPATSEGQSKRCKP
UniProt Q00526: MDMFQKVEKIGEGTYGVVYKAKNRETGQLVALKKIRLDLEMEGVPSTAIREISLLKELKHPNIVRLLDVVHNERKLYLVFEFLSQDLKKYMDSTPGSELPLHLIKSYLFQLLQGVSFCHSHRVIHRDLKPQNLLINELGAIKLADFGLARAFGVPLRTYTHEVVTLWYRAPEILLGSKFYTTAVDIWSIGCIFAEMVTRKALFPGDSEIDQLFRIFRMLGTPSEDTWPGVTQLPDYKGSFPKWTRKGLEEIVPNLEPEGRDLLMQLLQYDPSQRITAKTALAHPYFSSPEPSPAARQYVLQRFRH
UniProt P11802: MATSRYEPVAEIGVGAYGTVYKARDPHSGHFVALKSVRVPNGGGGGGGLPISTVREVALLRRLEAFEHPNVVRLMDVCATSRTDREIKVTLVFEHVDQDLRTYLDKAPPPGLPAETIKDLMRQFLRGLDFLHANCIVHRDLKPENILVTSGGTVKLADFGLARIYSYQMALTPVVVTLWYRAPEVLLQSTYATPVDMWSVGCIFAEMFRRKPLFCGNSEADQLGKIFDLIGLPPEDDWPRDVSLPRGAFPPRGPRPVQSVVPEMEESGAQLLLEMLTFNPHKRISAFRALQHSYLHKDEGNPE
UniProt Q00535, whole entry, looked up: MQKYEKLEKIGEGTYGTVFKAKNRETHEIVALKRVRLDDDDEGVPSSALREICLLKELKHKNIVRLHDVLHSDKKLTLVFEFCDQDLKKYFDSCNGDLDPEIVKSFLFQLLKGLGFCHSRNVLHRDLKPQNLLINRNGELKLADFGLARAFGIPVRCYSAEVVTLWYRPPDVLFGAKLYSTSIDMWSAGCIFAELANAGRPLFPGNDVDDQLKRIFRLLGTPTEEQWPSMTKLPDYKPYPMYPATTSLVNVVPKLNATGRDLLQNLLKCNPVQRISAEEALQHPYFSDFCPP
UniProt Q00534, whole entry: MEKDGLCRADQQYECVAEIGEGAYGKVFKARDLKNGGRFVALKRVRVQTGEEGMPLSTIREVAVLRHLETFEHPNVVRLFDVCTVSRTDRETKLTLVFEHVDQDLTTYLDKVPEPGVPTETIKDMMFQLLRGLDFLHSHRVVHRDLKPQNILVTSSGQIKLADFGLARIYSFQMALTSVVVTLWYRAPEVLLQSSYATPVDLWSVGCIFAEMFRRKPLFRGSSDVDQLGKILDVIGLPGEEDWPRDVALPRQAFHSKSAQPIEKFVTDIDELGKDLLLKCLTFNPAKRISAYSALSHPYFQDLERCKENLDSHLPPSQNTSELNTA

Assays:
Assay in all cases: kinase-Nluc reporter destabilization hit call (1 = scored as downregulated) (binary); higher = compound decreases kinase abundance
Settings in all cases: K562; 2-18 h
[1] = target: ABL1 (UniProt P00519)
[2] = target: AKT1 (UniProt P31749)
[3] = target: ALK (UniProt Q9UM73)
[4] = target: ARAF (UniProt P10398)
[5] = target: AURKA (UniProt O14965)
[6] = target: AURKB (UniProt Q96GD4)
[7] = target: AURKC (UniProt Q9UQB9)
[8] = target: BLK (UniProt P51451)
[9] = target: BMX (UniProt P51813)
[10] = target: BRAF (UniProt P15056)
[11] = tested on: BRAF_V600E
[12] = target: BTK (UniProt Q06187)
[13] = target: CAMK2A (UniProt Q9UQM7)
[14] = target: CAMK2G (UniProt Q13555)
[15] = target: CDK10 (UniProt Q15131)
[16] = target: CDK2 (UniProt P24941)
[17] = target: CDK3 (UniProt Q00526)
[18] = target: CDK4 (UniProt P11802)
[19] = target: CDK5 (UniProt Q00535)
[20] = target: CDK6 (UniProt Q00534)

Measured: kinase-Nluc reporter destabilization hit call

O=c1cc(-c2ccc(O)c(O)c2O)oc2ccccc12 (10 µM)
inactive: [1] 0 | [2] 0 | [3] 0 | [4] 0 | [5] 0 | [6] 0 | [7] 0 | [8] 0 | [9] 0 | [10] 0 | [11] 0 | [12] 0 | [13] 0 | [14] 0 | [15] 0 | [16] 0 | [17] 0 | [18] 0 | [19] 0 | [20] 0

CCn1nc(C2CCN(C(=O)CCO)CC2)nc1-c1cnc(N)c(-c2nnc(C(C)(C)C)o2)n1 (10 µM)
inactive: [1] 0 | [2] 0 | [3] 0 | [4] 0 | [5] 0 | [6] 0 | [7] 0 | [8] 0 | [9] 0 | [10] 0 | [11] 0 | [12] 0 | [13] 0 | [14] 0 | [15] 0 | [16] 0 | [17] 0 | [18] 0 | [19] 0 | [20] 0

O=C1NC(=O)C(c2cn(-c3ccccc3)nc2-c2ccc(F)cc2)N1 (stereo not given) (10 µM)
inactive: [1] 0 | [2] 0 | [3] 0 | [4] 0 | [5] 0 | [6] 0 | [7] 0 | [8] 0 | [9] 0 | [10] 0 | [11] 0 | [12] 0 | [13] 0 | [14] 0 | [15] 0 | [16] 0 | [17] 0 | [18] 0 | [19] 0 | [20] 0

Arranged by count of non-hydrogen atoms (falling): 3 of the compounds above
CCn1nc(C2CCN(C(=O)CCO)CC2)nc1-c1cnc(N)c(-c2nnc(C(C)(C)C)o2)n1 (10 µM)
inactive: [1] 0 | [2] 0 | [3] 0 | [4] 0 | [5] 0 | [6] 0 | [7] 0 | [8] 0 | [9] 0 | [10] 0 | [11] 0 | [12] 0 | [13] 0 | [14] 0 | [15] 0 | [16] 0 | [17] 0 | [18] 0 | [19] 0 | [20] 0

O=C1NC(=O)C(c2cn(-c3ccccc3)nc2-c2ccc(F)cc2)N1 (stereo not given) (10 µM)
inactive: [1] 0 | [2] 0 | [3] 0 | [4] 0 | [5] 0 | [6] 0 | [7] 0 | [8] 0 | [9] 0 | [10] 0 | [11] 0 | [12] 0 | [13] 0 | [14] 0 | [15] 0 | [16] 0 | [17] 0 | [18] 0 | [19] 0 | [20] 0

O=c1cc(-c2ccc(O)c(O)c2O)oc2ccccc12 (10 µM)
inactive: [1] 0 | [2] 0 | [3] 0 | [4] 0 | [5] 0 | [6] 0 | [7] 0 | [8] 0 | [9] 0 | [10] 0 | [11] 0 | [12] 0 | [13] 0 | [14] 0 | [15] 0 | [16] 0 | [17] 0 | [18] 0 | [19] 0 | [20] 0

Going on with the list:

COc1cc(-c2cc(-c3cc(OC)c(OC)c(OC)c3)cc(C(F)P(=O)(OCOC(=O)C(C)(C)C)OCOC(=O)C(C)(C)C)c2)cc(OC)c1OC (stereo not given) [Stafia-1-dipivaloyloxymethyl ester] (2.5 µM)
inactive: [1] 0 | [2] 0 | [3] 0 | [4] 0 | [5] 0 | [6] 0 | [7] 0 | [8] 0 | [9] 0 | [10] 0 | [11] 0 | [12] 0 | [13] 0 | [14] 0 | [15] 0 | [16] 0 | [17] 0 | [18] 0 | [19] 0 | [20] 0

Nc1cccc(S(=O)(=O)N2CCCN(S(=O)(=O)c3ccc4c(c3)OCCO4)CC2)c1 (10 µM)
inactive: [1] 0 | [2] 0 | [3] 0 | [4] 0 | [5] 0 | [6] 0 | [7] 0 | [8] 0 | [9] 0 | [10] 0 | [11] 0 | [12] 0 | [13] 0 | [14] 0 | [15] 0 | [16] 0 | [17] 0 | [18] 0 | [19] 0 | [20] 0

CCCCOc1ccc(CC/C=C2\SC(=O)N(CCN)C2=O)cc1 [K145 (hydrochloride)] (2.5 µM)
inactive: [1] 0 | [2] 0 | [3] 0 | [4] 0 | [5] 0 | [6] 0 | [7] 0 | [8] 0 | [9] 0 | [10] 0 | [11] 0 | [12] 0 | [13] 0 | [14] 0 | [15] 0 | [16] 0 | [17] 0 | [18] 0 | [19] 0 | [20] 0

COc1c(O)cc2oc3cc(O)c(CC=C(C)C)c(O)c3c(=O)c2c1CCC(C)(C)O [Garcinone D] (2.5 µM)
inactive: [1] 0 | [2] 0 | [3] 0 | [4] 0 | [5] 0 | [6] 0 | [7] 0 | [8] 0 | [9] 0 | [10] 0 | [11] 0 | [12] 0 | [13] 0 | [14] 0 | [15] 0 | [16] 0 | [17] 0 | [18] 0 | [19] 0 | [20] 0

Cc1nc(NC(=O)NCCc2nnn(CCF)n2)sc1-c1ccc(S(C)(=O)=O)c(F)c1 (10 µM)
inactive: [1] 0 | [2] 0 | [3] 0 | [4] 0 | [5] 0 | [6] 0 | [7] 0 | [8] 0 | [9] 0 | [10] 0 | [11] 0 | [12] 0 | [13] 0 | [14] 0 | [15] 0 | [16] 0 | [17] 0 | [18] 0 | [19] 0 | [20] 0

C=CC(=O)N1CCC[C@@H](n2nc(C(=O)Nc3ccc(CC(=O)N(C)C)c(C)c3C)c3c(N)ncnc32)C1 (10 µM)
inactive: [1] 0 | [2] 0 | [3] 0 | [4] 0 | [5] 0 | [6] 0 | [7] 0 | [8] 0 | [9] 0 | [10] 0 | [11] 0 | [12] 0 | [13] 0 | [14] 0 | [15] 0 | [16] 0 | [17] 0 | [18] 0 | [19] 0 | [20] 0

COC(=O)[C@@]1(C)CC[C@]2(C(=O)O)CC[C@]3(C)C(=CC[C@@H]4[C@@]5(C)C[C@H](O)[C@H](O[C@@H]6OC[C@@H](O[C@@H]7O[C@H](CO)[C@@H](O)[C@H](O)[C@H]7O)[C@H](O)[C@H]6O)[C@@](C)(CO)[C@@H]5CC[C@]43C)[C@@H]2C1 [Esculentoside A] (10 µM)
inactive: [1] 0 | [2] 0 | [3] 0 | [4] 0 | [5] 0 | [6] 0 | [7] 0 | [8] 0 | [9] 0 | [10] 0 | [11] 0 | [12] 0 | [13] 0 | [14] 0 | [15] 0 | [16] 0 | [17] 0 | [18] 0 | [19] 0 | [20] 0

COc1nc(-c2cccc3c2OCCO3)ccc1Nc1ccc(CN(C)C)cc1 [RAS inhibitor Abd-7] (10 µM)
inactive: [1] 0 | [2] 0 | [3] 0 | [4] 0 | [5] 0 | [6] 0 | [7] 0 | [8] 0 | [9] 0 | [10] 0 | [11] 0 | [12] 0 | [13] 0 | [14] 0 | [15] 0 | [16] 0 | [17] 0 | [18] 0 | [19] 0 | [20] 0

Cc1ccc(-c2nn(C(C)(C)CNC(=O)c3ccncc3)c3ncnc(N)c23)cc1 (2.5 µM)
inactive: [1] 0 | [2] 0 | [3] 0 | [4] 0 | [5] 0 | [6] 0 | [7] 0 | [8] 0 | [9] 0 | [10] 0 | [11] 0 | [12] 0 | [13] 0 | [14] 0 | [15] 0 | [16] 0 | [17] 0 | [18] 0 | [19] 0 | [20] 0

O=c1ccc2ccc(O)c(O)c2o1 [Daphnetin] (10 µM)
inactive: [1] 0 | [2] 0 | [3] 0 | [4] 0 | [5] 0 | [6] 0 | [7] 0 | [8] 0 | [9] 0 | [10] 0 | [11] 0 | [12] 0 | [13] 0 | [14] 0 | [15] 0 | [16] 0 | [17] 0 | [18] 0 | [19] 0 | [20] 0

[O-][n+]1cccc(-c2nc3c(Cl)cccc3cc2[C@@H](Nc2ncnc3cccnc23)C(F)(F)F)c1 [Seletalisib] (10 µM)
inactive: [1] 0 | [2] 0 | [3] 0 | [4] 0 | [5] 0 | [6] 0 | [7] 0 | [8] 0 | [9] 0 | [10] 0 | [11] 0 | [12] 0 | [13] 0 | [14] 0 | [15] 0 | [16] 0 | [17] 0 | [18] 0 | [19] 0 | [20] 0

COc1ccc2c(Oc3ccc(NC(=O)c4c(C)n(CC(C)(C)O)n(-c5ccccc5)c4=O)cc3F)ccnc2c1 (2.5 µM)
inactive: [1] 0 | [2] 0 | [3] 0 | [4] 0 | [5] 0 | [6] 0 | [7] 0 | [8] 0 | [9] 0 | [10] 0 | [11] 0 | [12] 0 | [13] 0 | [14] 0 | [15] 0 | [16] 0 | [17] 0 | [18] 0 | [19] 0 | [20] 0

NS(=O)(=O)c1ccc(N2N=C(c3ccccc3)CC2c2ccccc2)cc1 (stereo not given) (10 µM)
inactive: [1] 0 | [2] 0 | [3] 0 | [4] 0 | [5] 0 | [6] 0 | [7] 0 | [8] 0 | [9] 0 | [10] 0 | [11] 0 | [12] 0 | [13] 0 | [14] 0 | [15] 0 | [16] 0 | [17] 0 | [18] 0 | [19] 0 | [20] 0
